This assay addresses PqqU (TonB-dependent transporter, formerly YncD) from Escherichia coli (E. coli) (UniProt P76115). As to the kind of experiment: cryo-EM structure; 43 μM PqqU (3.3 mg/ml) in an LMNG micelle, excess detergent removed, with 910 μM PQQ; single-particle reconstruction at 1.99 Å; both purified.

Results are given in words; binding and its absence hold for the method and conditions named.

B1: PqqU (TonB-dependent transporter, formerly YncD) from Escherichia coli (protein, UniProt P76115 24-700)
chain: ADEQTMIVSAAPQVVSELDTPAAVSVVDGEEMRLATPRINLSESLTGVPGLQVQNRQNYAQDLQLSIRGFGSRSTYGIRGIRLYVDGIPATMPDGQGQTSNIDLSSVQNVEVLRGPFSALYGNASGGVMNVTTQTGQQPPTIEASSYYGSFGSWRYGLKATGATGDGTQPGDVDYTVSTTRFTTHGYRDHSGAQKNLANAKLGVRIDEASKLSLIFNSVDIKADDPGGLTKAEWKANPQQAPRAEQYDTRKTIKQTQAGLRYERSLSSRDDMSVMMYAGERETTQYQSIPMAPQLNPSHAGGVITLQRHYQGIDSRWTHRGELGVPVTFTTGLNYENMSENRKGYNNFRLNSGMPEYGQKGELRRDERNLMWNIDPYLQTQWQLSEKLSLDAGVRYSSVWFDSNDHYVTPGNGDDSGDASYHKWLPAGSLKYAMTDAWNIYLAAGRGFETPTINELSYRADGQSGMNLGLKPSTNDTIEIGSKTRIGDGLLSLALFQTDTDDEIVVDSSSGGRTTYKNAGKTRRQGAELAWDQRFAGDFRVNASWTWLDATYRSNVCNEQDCNGNRMPGIARNMGFASIGYVPEDGWYAGTEARYMGDIMADDENTAKAPSYTLVGLFTGYKYNYHNLTVDLFGRVDNLFDKEYVGSVIVNESNGRYYEPSPGRNYGVGMNIAWRFE
Regarding B1, the binding result was “no binding (tested: 43 μM)”.
